# The supplement of paper PMC11006884
# By UniProt entry, the sequences of proteins in these tests, tags left out. Where a name states a change or a piece, a line headed by the entry shows the natural chain unless it says otherwise.
# UniProt Q13148, whole entry, looked up: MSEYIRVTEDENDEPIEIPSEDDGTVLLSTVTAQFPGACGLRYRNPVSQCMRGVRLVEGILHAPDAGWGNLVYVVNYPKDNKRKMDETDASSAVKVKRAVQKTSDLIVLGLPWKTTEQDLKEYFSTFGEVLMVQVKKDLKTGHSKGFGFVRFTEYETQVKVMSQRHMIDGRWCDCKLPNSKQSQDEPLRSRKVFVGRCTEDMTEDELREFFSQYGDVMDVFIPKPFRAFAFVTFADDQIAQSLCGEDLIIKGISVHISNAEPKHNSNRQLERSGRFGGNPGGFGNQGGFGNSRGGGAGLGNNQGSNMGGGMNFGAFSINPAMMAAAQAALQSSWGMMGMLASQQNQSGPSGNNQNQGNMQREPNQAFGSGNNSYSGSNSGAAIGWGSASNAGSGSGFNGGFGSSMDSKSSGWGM
# UniProt Q12789: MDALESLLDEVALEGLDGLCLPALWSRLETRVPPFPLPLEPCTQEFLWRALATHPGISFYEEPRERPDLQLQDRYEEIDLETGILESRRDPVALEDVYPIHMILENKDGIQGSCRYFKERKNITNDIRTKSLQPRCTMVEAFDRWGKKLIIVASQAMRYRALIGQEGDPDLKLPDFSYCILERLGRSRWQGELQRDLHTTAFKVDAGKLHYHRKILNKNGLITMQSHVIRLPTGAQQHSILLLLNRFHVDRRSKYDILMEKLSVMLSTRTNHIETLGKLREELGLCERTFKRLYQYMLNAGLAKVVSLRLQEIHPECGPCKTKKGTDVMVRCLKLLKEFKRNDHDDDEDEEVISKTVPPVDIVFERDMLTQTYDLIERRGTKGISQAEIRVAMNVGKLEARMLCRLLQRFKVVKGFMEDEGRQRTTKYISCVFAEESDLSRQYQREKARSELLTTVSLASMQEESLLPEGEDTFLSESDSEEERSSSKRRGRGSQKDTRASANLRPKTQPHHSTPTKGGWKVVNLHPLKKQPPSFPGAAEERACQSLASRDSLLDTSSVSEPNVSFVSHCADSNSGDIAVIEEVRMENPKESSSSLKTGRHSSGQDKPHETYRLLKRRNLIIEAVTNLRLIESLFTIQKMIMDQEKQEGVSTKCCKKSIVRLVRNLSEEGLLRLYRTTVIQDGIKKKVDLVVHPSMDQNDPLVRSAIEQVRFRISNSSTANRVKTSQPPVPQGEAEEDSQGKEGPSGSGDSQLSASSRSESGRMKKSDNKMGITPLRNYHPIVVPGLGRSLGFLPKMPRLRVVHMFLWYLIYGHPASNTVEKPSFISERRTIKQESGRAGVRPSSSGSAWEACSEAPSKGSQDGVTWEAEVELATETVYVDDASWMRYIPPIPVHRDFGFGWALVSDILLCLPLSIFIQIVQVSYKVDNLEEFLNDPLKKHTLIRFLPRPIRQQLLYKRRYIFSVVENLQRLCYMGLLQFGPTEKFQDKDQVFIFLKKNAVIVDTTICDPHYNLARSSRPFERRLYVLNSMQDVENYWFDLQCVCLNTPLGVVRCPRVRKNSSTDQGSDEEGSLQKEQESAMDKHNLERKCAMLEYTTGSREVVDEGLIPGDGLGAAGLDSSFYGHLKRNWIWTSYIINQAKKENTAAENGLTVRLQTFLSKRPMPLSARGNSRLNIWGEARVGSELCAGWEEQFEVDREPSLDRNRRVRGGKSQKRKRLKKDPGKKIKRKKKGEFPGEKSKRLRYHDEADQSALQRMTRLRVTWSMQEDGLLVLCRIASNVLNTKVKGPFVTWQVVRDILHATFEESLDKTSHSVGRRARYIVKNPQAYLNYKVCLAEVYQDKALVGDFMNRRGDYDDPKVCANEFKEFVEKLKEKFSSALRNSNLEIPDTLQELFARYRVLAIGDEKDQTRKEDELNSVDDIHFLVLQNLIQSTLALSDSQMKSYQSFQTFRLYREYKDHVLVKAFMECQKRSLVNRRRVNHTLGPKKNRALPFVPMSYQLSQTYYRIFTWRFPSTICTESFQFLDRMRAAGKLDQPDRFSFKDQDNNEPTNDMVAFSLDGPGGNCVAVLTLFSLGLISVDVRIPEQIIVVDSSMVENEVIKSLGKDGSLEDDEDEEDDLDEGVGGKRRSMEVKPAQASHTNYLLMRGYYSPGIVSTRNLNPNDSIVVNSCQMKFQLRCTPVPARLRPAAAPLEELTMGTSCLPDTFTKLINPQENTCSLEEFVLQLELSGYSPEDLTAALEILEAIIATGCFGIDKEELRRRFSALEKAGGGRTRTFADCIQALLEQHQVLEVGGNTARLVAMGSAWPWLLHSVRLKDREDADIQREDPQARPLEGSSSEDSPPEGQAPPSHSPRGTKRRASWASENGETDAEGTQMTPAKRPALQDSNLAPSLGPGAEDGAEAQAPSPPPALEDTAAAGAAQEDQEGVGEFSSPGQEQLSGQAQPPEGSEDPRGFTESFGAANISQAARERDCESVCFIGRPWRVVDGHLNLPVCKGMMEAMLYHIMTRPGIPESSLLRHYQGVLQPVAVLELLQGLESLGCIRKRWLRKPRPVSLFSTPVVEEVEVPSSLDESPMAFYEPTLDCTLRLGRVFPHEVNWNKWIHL
# UniProt Q13242, whole entry, looked up: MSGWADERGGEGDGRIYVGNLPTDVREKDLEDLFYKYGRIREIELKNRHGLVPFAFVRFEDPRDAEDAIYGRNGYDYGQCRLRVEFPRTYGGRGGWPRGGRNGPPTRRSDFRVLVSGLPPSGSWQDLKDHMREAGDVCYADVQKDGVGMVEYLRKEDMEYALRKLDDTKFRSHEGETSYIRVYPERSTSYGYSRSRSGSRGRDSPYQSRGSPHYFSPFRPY
# UniProt Q13263: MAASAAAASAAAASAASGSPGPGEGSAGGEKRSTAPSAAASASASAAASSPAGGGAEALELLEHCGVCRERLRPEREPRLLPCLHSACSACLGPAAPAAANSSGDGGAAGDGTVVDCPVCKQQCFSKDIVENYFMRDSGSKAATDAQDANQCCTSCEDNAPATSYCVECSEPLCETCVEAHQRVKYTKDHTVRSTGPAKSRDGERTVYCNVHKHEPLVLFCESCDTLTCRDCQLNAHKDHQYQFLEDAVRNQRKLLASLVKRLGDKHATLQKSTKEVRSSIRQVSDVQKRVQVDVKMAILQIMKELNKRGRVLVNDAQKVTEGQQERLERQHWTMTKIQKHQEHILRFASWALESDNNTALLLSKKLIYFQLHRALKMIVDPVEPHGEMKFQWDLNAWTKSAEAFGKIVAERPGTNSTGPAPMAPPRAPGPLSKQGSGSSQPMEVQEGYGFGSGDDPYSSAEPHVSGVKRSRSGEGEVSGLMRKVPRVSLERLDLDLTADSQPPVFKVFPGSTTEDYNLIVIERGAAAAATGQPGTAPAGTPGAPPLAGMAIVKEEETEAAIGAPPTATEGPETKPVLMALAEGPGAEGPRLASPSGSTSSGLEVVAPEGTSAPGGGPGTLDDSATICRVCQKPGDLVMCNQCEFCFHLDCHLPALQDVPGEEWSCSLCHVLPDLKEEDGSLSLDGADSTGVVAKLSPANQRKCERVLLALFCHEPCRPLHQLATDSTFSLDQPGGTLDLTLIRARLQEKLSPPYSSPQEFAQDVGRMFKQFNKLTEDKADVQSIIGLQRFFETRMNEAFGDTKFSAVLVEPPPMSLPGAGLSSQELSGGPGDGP
# UniProt Q06323: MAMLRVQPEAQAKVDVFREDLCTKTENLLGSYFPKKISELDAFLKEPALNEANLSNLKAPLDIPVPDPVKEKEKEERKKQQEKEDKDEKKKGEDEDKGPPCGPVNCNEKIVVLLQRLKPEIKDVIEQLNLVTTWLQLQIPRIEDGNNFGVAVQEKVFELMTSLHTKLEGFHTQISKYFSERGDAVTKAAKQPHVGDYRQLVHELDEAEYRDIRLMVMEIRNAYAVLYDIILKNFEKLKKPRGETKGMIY
# UniProt Q13144, whole entry, looked up: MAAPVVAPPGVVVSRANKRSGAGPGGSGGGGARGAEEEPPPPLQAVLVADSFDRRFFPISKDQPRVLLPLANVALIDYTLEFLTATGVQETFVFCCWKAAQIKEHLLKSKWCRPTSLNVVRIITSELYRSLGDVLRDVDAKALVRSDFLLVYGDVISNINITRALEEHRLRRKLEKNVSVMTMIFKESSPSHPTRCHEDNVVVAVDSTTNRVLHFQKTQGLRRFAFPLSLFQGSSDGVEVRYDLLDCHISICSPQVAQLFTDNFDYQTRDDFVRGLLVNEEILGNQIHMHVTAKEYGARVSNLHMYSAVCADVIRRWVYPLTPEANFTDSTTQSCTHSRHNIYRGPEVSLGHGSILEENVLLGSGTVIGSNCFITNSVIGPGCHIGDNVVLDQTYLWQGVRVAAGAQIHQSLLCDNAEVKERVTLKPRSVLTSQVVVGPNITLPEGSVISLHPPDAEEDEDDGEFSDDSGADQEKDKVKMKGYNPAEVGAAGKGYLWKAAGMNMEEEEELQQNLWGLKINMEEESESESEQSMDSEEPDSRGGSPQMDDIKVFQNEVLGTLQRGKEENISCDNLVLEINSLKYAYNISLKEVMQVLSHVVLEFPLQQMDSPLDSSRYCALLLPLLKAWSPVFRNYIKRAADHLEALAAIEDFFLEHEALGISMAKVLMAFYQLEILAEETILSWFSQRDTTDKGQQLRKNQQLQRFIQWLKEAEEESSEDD
# UniProt Q04637, whole entry, looked up: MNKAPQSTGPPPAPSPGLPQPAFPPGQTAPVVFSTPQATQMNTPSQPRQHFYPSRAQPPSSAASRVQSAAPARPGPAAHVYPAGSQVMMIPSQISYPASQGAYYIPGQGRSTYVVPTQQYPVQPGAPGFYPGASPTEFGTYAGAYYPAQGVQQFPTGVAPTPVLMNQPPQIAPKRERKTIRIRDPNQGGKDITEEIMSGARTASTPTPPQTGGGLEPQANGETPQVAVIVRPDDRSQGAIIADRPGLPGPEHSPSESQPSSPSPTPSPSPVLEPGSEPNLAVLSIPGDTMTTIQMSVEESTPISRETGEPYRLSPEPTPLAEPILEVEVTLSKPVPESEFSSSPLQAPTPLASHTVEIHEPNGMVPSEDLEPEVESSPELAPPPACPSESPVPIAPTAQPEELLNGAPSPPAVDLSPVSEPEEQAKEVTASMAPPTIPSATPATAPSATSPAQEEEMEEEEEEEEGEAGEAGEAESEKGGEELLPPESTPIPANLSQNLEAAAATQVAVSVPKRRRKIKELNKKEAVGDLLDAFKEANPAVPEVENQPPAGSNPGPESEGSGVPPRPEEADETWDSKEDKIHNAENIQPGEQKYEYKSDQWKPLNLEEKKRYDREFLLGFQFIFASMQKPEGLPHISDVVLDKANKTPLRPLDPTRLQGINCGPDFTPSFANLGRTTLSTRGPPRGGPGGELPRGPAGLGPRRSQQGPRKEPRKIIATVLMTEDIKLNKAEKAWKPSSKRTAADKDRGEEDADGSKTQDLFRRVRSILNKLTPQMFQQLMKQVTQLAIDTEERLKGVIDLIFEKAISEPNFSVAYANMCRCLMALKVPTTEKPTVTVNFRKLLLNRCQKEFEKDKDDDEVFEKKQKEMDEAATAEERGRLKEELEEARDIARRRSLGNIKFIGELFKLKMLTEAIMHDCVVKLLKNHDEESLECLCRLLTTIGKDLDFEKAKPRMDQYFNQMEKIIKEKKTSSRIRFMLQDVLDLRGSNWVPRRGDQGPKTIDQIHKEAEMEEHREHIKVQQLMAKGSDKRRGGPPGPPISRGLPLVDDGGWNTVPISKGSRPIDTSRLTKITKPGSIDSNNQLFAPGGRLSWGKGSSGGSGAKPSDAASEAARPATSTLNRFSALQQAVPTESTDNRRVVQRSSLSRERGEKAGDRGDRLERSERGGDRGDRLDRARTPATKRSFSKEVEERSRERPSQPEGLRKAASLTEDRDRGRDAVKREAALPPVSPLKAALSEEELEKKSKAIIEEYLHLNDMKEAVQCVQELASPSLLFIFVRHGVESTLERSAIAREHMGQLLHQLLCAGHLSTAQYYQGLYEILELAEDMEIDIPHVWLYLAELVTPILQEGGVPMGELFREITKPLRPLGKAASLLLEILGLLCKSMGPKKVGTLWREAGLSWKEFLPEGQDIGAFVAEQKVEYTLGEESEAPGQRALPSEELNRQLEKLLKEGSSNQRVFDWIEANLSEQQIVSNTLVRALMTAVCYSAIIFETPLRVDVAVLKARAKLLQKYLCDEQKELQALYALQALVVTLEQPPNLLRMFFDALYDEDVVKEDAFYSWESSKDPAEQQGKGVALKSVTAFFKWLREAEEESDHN
# UniProt Q09028, whole entry, looked up: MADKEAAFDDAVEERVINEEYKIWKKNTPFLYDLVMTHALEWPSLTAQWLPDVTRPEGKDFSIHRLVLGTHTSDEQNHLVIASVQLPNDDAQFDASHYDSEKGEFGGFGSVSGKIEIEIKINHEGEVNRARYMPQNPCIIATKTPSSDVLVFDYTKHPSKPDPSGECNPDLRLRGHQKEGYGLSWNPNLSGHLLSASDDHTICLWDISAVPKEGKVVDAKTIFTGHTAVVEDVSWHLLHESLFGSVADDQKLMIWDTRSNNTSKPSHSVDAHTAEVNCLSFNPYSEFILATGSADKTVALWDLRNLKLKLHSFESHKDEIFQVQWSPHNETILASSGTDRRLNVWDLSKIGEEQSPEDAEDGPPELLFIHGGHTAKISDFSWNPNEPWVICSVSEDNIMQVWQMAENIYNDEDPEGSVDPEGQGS
# The list shows a part of the results, in another mix than the full data.
# Compound: COC(=O)C#Cc1ccccc1 [methyl 3-phenylpropiolate]
# Assay: log2 ratio of iodoacetamide-alkyne labeling of the cysteine site, DMSO over compound (competition); higher = stronger covalent engagement of the cysteine by the compound, active = 1 or more
# Details: 500 µM; treatment time 1 h; system: HEK293T cell lysate
# Summary of the method: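 For each cysteine, the log2 competition ratio is mean control-channel reporter intensity over mean compound-channel reporter intensity. HEK293T lysate (2 mg/mL) was exposed to vehicle or electrophile (500 µM, 1 h, ambient temperature), labelled with iodoacetamide alkyne (1 h), clicked to sCIP-TMT reagents, digested overnight with trypsin at 37 °C, streptavidin-enriched and analysed by Orbitrap Eclipse LC-MS/MS with FAIMS and FragPipe. Cysteines quantified in only one of three replicates, each with duplicate channels, were excluded.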
row,Target,log2 ratio of iodoacetamide-alkyne labeling
1,AKAP13 C1414 (UniProt Q12802),inactive: 0.566
2,TARDBP C244 (UniProt Q13148),inactive: 0.441
3,DHX9 C1029 (UniProt Q08211),inactive: 0.81
4,NFIA C6 (UniProt Q12857),inactive: -0.0083
5,GOLGA2 C794 (UniProt Q08379),active: 1.07
6,TARBP1 C1556 (UniProt Q13395),inactive: 0.00206
7,UBE3A C843 (UniProt Q05086),inactive: 0.347
8,DHX9 C438 (UniProt Q08211),inactive: 0.228
9,GTF3C1 C2046 (UniProt Q12789),inactive: 0.297
10,AKAP13 C683 (UniProt Q12802),inactive: 0.255
11,TARBP1 C483 (UniProt Q13395),active: 1.21
12,NOTCH2 C2085 (UniProt Q04721),inactive: 0.208
13,UniProt Q13242_C138,inactive: 0.112
14,ILF3 C295 (UniProt Q12906),inactive: 0.193
15,RELA C109 (UniProt Q04206),inactive: 0.332
16,KIF1A C609 (UniProt Q12756),inactive: 0.332
17,ROCK1 C1206 (UniProt Q13464),inactive: 0.46
18,TRIM28 C713 (UniProt Q13263),inactive: -0.0745
19,CHAF1A C21 (UniProt Q13111),inactive: 0.878

row,Target,log2 ratio of iodoacetamide-alkyne labeling
1,TP53BP1 C1159 (UniProt Q12888),inactive: 0.462
2,CHD3 C1464 (UniProt Q12873),inactive: 0.281
3,PSME1 C22 (UniProt Q06323),inactive: 0.8
4,IFIT5 C476 (UniProt Q13325),inactive: 0.166
5,CBX3 C177 (UniProt Q13185),inactive: 0.396
6,EIF2B5 C335 (UniProt Q13144),inactive: 0.267
7,UniProt Q13247_C121,inactive: -0.0624
8,TARDBP C50 (UniProt Q13148),inactive: 0.204
9,TARDBP C39 (UniProt Q13148),inactive: 0.132
10,FMR1 C584 (UniProt Q06787),inactive: 0.303
11,GRSF1 C476 (UniProt Q12849),inactive: 0.306
12,EIF4G1 C1384 (UniProt Q04637),inactive: 0.102
13,TRIM28 C717 (UniProt Q13263),inactive: -0.00982
14,CHAF1A C202 (UniProt Q13111),inactive: 0.923
15,UniProt Q09028_C203,inactive: 0.00172
16,RPL6 C44 (UniProt Q02878),inactive: 0.726
17,SF3A3 C103 (UniProt Q12874),inactive: 0.188
18,EIF2B5 C196 (UniProt Q13144),inactive: 0.556
19,TRIM28 C68 (UniProt Q13263),inactive: 0.112

# 2 entries picked at random from the list so far:
row,Target,log2 ratio of iodoacetamide-alkyne labeling
6,EIF2B5 C335 (UniProt Q13144),inactive: 0.267
13,TRIM28 C717 (UniProt Q13263),inactive: -0.00982
